In patent US8119364B2, “Methods for generating analogs of coenzyme A” (The Regents of the University of California, priority 2005, dated 2012):
For some assays here: The name of at least one read-out is uncertain. Some results were stated once for a whole list of compounds, not compound by compound. For some assays here: For at least one compound, name, drawing or mass did not settle the structure.

System: carrier protein VibB with CoAA/D/E and Sfp
Assay: In vitro pathway uptake: biodetectability (fluorescent gels, western blots)
Format: biochemical
Conditions: not given

SMILES | biodetectible covalent modification of carrier protein in vitro
CC(C)(CO)[C@@H](O)C(=O)NCCN=[N+]=[N-] [Compound 1] | biodetectible covalent modification of carrier protein in vitro
C#CCNC(=O)CCNC(=O)[C@H](O)C(C)(C)CO [Compound 2] | biodetectible covalent modification of carrier protein in vitro
CC(C)(CO)[C@@H](O)C(=O)NCCC(=O)NCCN=[N+]=[N-] [Compound 3] | biodetectible covalent modification of carrier protein in vitro
CC(=O)CCC(=O)NCCNC(=O)CCNC(=O)[C@H](O)C(C)(C)CO [Compound 4] | biodetectible covalent modification of carrier protein in vitro
CC(C)(CO)[C@@H](O)C(=O)NCCC(=O)NCCNC(=O)CCN=[N+]=[N-] [Compound 5] | biodetectible covalent modification of carrier protein in vitro
CC(=O)CCC(=O)NCCOCCOCCNC(=O)[C@H](O)C(C)(C)CO [Compound 6] | biodetectible covalent modification of carrier protein in vitro
CC(C)(CO)[C@@H](O)C(=O)NCCOCCOCCNC(=O)CCN=[N+]=[N-] [Compound 7] | biodetectible covalent modification of carrier protein in vitro
CC(C)(CO)[C@@H](O)C(=O)NCCOCCOCCOCCOCCOCCOCCOCCOCCOCCOCCN=[N+]=[N-] [Compound 8] | biodetectible covalent modification of carrier protein in vitro
CN(C)c1ccc2c(CC(=O)NCCNC(=O)[C@H](O)C(C)(C)CO)cc(=O)oc2c1 [Compound 12] | biodetectible covalent modification of carrier protein in vitro
CN(C)c1ccc2c(CC(=O)NCCCCCCNC(=O)CCNC(=O)[C@H](O)C(C)(C)CO)cc(=O)oc2c1 [Compound 13] | biodetectible covalent modification of carrier protein in vitro
CN(C)c1cccc2c(S(=O)(=O)NCCNC(=O)CCNC(=O)[C@H](O)C(C)(C)CO)cccc12 [Compound 14] | biodetectible covalent modification of carrier protein in vitro
CN(C)c1ccc2c(CC(=O)NCCCOCCNC(=O)[C@H](O)C(C)(C)CO)cc(=O)oc2c1 [Compound 15] | biodetectible covalent modification of carrier protein in vitro
CN(C)c1ccc2c(CC(=O)NCCOCCCNC(=O)[C@H](O)C(C)(C)CO)cc(=O)oc2c1 [Compound 16] | biodetectible covalent modification of carrier protein in vitro
CN(C)c1ccc2c(CC(=O)NCCOCCOCCNC(=O)[C@H](O)C(C)(C)CO)cc(=O)oc2c1 [Compound 17] | biodetectible covalent modification of carrier protein in vitro
CN(C)c1ccc2c(CC(=O)NCCOCCOCCOCCOCCOCCOCCOCCOCCOCCOCCNC(=O)[C@H](O)C(C)(C)CO)cc(=O)oc2c1 [Compound 18] | biodetectible covalent modification of carrier protein in vitro

Biological target: T1, E. coli PanK (CoAA) (Escherichia coli, UniProt P0A6I3)
T1 sequence (P0A6I3 1-316): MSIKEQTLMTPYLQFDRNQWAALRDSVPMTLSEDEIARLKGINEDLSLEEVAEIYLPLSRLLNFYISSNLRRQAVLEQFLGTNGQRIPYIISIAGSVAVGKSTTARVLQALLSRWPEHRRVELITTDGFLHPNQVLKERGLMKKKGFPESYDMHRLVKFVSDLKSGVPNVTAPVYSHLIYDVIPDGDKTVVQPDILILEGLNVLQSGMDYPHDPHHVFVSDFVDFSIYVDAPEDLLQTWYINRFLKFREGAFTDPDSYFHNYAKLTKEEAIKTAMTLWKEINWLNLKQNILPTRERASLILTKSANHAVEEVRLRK
Assay: not given
Conditions: natural pantetheine, from reference 14; cited from earlier work

SMILES | kcat/Km [M⁻¹ s⁻¹]
CC(C)(CO)[C@@H](O)C(=O)NCCC(=O)NCCS [Pantetheine] | 3530 ± 440

Same assay, conditions: natural pantetheine, from reference 14; listed as pantetheine; cited from earlier work

SMILES | kcat/Km [M⁻¹ s⁻¹]
CC(C)(CO)[C@@H](O)C(=O)NCCC(=O)NCCS [Pantetheine] | 3500
